Measured data: PubChem BioAssay AID1259254 (NCATS, 2017)

- Assay: 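Genome-wide screen for genes that prevent DNA re-replication in cancer cells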 (primary screen)
- Cell system: human HCT116 colorectal cancer cells
- Reagents: single siRNA against human genes
- Timing: 3 days
- Measurement: 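Nuclei stained with Hoechst and imaged; cell-cycle phase assigned by DNA content; G2 share scaled per plate, non-targeting siRNA 0%, GMNN siRNA 100%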
- Reading the numbers: G2 robust z-score: higher = more G2 cells, more excess DNA replication
- Rule for the call: 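An siRNA counts as active if its G2 robust z-score lies at least 5 MADs above the screen median; here such calls match roughly 38% of GMNN control or more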
Here is a random part of about 59,000 reagents tested. Of all reagents, about 1,550 (2.6%) are marked active. 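G2 share is only a proxy for re-replication; each gene was hit by three separate siRNAs, and active genes were retested.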 Entries without a mark were called inactive. Reagents against one gene are numbered here. Not all columns of the deposit are shown. Reagent sequences are not shown. Not stated in the record: the amount of reagent.

KIF14 #1
- G2 robust z-score: -0.504

KIF14 #2
- G2 robust z-score: 2.02

KIF14 #3
- G2 robust z-score: -0.209

CLIC5 #1
- G2 robust z-score: 3.58

CLIC5 #2
- G2 robust z-score: -0.292

CLIC5 #3
- G2 robust z-score: -0.811

ZNF716 #1
- G2 robust z-score: 1.46

ZNF716 #2
- G2 robust z-score: -0.462

ZNF716 #3
- G2 robust z-score: 1.03

MSRB2 #1
- G2 robust z-score: 7.11 (active)

MSRB2 #2
- G2 robust z-score: 9.05 (active)

MSRB2 #3
- G2 robust z-score: -0.355

SECISBP2L #1
- G2 robust z-score: -0.336

SECISBP2L #2
- G2 robust z-score: -0.212

SECISBP2L #3
- G2 robust z-score: -0.172

ICA1 #1
- G2 robust z-score: -0.616

ICA1 #2
- G2 robust z-score: 0.377

ICA1 #3
- G2 robust z-score: 0.347

Reformatted: results already given
{"target gene":"KIF14","reagent":2,"G2 robust z-score":2.02}
{"target gene":"KIF14","reagent":3,"G2 robust z-score":-0.209}
{"target gene":"CLIC5","reagent":1,"G2 robust z-score":3.58}
